Experimental data reported in PubChem BioAssay AID2685 (National Center for Advancing Translational Sciences (NCATS), 2010).
The list shows a part of the results. These are further read-outs of the screen, such as a control signal, another cell line or another target. No call is given for them. Compounds called inactive in the main read-out are mostly missing here. The note in brackets gives the kind of curve behind each potency; many fits are weak.

Test: qHTS Assay for Lipid Storage Modulators in Drosophila S3 Cells;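 on cell number change: cells counted by Cell Tracker Red CMTPX staining in the red channel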
Conditions: BODIPY lipid droplet fluorescence, 18-24 h; for cell number change: measured here: cell count max response, cells fed with added oleic acid
Procedure, shortened: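 Laser-scanning cytometry quantifies lipid droplet accumulation (500–530 nm total intensity; droplet/cell object ratio) in oleic acid-fed (400 uM added) Drosophila S3 cells treated with a concentration series. 20 uM Triacsin C defined 100% inhibition.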

[1] = measured here: lipid fluorescence (Fed channel) AC50, cells fed with added oleic acid
[2] = measured here: cell number channel AC50, cells fed with added oleic acid

Row | SMILES | cell number change | AC50 [1] | AC50 [2]
1 | CC1CC(C)CN(C(=O)COC(=O)CNS(=O)(=O)/C=C/c2ccccc2)C1 (centres undefined) | -8.98% | 29.1 µM [falling, partial curve] | 
2 | Fc1ccc(-c2csc3nnc(SCc4cccnc4)n23)cc1 |  | 0.13 µM [rising, full curve, poor fit] | 2.91 µM [rising, partial curve]
3 | O=C(NN=C1CCCCC1)c1cc(-c2ccccc2)n[nH]1 | -6.51% | 2.06 µM [rising, partial curve, poor fit] | 
4 | Cc1cccc(Nc2nnc(-c3ccc(C(=O)N4C[C@H]5C[C@H](C4)c4cccc(=O)n4C5)cc3)c3ccccc23)c1 |  | 0.58 µM [rising, single point] | 
5 | COc1ccc(-c2csc3nc(-c4cccnc4)nc(N4CCC(C(N)=O)CC4)c23)cc1OC |  | 0.92 µM [rising, full curve] | 
6 | Cc1ccc(NC(=O)CSCc2ccco2)cc1 | 37.9% |  | 29.1 µM [rising, single point]
7 | O=c1oc2cc(O)ccc2cc1-c1nc2c(s1)CCc1ccccc1-2 | 27.4% |  | 1.84 µM [rising, partial curve, poor fit]
8 | Cc1ccccc1CNC(=O)CN1C(=O)c2ccccc2S1(=O)=O | -7.89% |  | 
9 | Clc1ccc(C2Nc3cccc4cccc(c34)N2)cc1 | -19.2% | 0.517 µM [rising, single point] | 
10 | O=C(CNCc1ccccc1)Nc1ccc(Cl)cc1 | 6.2% | 1.16 µM [rising, full curve, poor fit] | 
11 | CC1CN(CC(=O)Nc2cccc(C(=O)Nc3cccc(C(F)(F)F)c3)c2)CC(C)O1 (centres undefined) | 76.5% | 4.11 µM [rising, partial curve, poor fit] | 9.2 µM [rising, partial curve]
12 | CC(=O)Nc1cc(S(=O)(=O)C(F)(F)F)ccc1Cl | 14.5% | 9.2 µM [rising, partial curve] | 
13 | Cc1ccc2[nH]c3c(c2c1)SC(C)(C)CC3=O | -17.7% |  | 
14 | CCOc1ccccc1OCCN1CCCC1 | 18.2% | 32.6 µM [rising, single point] | 
15 | CCN(CC)S(=O)(=O)c1cc(C(=O)O)c(Cl)cc1Cl | -10.7% |  | 
16 | CCOc1ccc(OCC)c(NS(=O)(=O)c2cn(C)cn2)c1 |  |  | 6.51 µM [falling, single point]
17 | Cc1cccn2c(=O)c3cc(C(=O)NCCN4CCOCC4)n(C)c3nc12 | -9.73% | 1.64 µM [rising, partial curve] | 
18 | COc1ccc(C(=O)N2CCCC(CCC(=O)NCc3ccc(F)c(F)c3)C2)o1 (centres undefined) | -23% | 6.51 µM [falling, full curve, poor fit] | 
19 | Cc1ccc(NC(=O)C(=O)NCCN2CCN(C(=S)Nc3ccccc3)CC2)cc1 | 4.95% | 2.91 µM [rising, single point] | 
20 | NC(=O)C1CCN(C(=O)C2CC(=O)N(c3ccc(F)cc3)C2)CC1 (centres undefined) | 9.83% |  | 
21 | Cn1c(=O)c2c(ncn2CCNC2=NCCCCC2)n(C)c1=O | -12.6% | 0.00461 µM [falling, full curve, poor fit] | 

Row | SMILES | cell number change | AC50 [1] | AC50 [2]
22 | COc1cccc(NC(=O)C2CCC2)c1 | 17.6% | 6.51 µM [rising, partial curve, poor fit] | 
23 | N/C(=N\OC(=O)Nc1ccc(Cl)c(Cl)c1)c1ncc(C(F)(F)F)cc1Cl | 4.12% |  | 
24 | COc1ccc(C(C)=O)cc1COc1ncnc2ccccc12 | 37.2% | 2.31 µM [rising, partial curve, poor fit] | 0.058 µM [rising, full curve, poor fit]
25 | Cc1ccc(CC(=O)N2CCOCC2)cc1 | -2.46% | 9.2 µM [falling, single point] | 
26 | CCc1ccc(N(CC(=O)N2CCOCC2)S(C)(=O)=O)cc1 | 4.01% | 29.1 µM [falling, single point] | 
27 | CCc1cc(CNC(=O)CCc2nnc(Cc3cccc(C)c3)o2)on1 | -17.7% | 16.4 µM [falling, single point] | 
28 | COc1ccc(CNC(=O)CSc2nnc3c(n2)[nH]c2ccc(C)cc23)cc1 | 1.74% | 6.51 µM [falling, single point] | 
29 | COc1cccc(C(=O)N2CCN(C3CCN(Cc4ccccc4)CC3)CC2)c1 | -6.83% |  | 
30 | Cc1ccc2sc3ccc(NC(=O)c4ccccc4Cl)cc3c(=O)c2c1 | 18.4% | 29.1 µM [falling, single point] | 
31 | CCCS(=O)(=O)N1CCN(Cc2ccccc2C(F)(F)F)CC1 | -11.3% |  | 
32 | O=C(Nc1cccc(F)c1)N1CCC(c2ccccc2)CC1 | 11.3% |  | 0.231 µM [rising, full curve, poor fit]
33 | CC(=O)Oc1ccc(C(=O)[C@H]2[C@H]3C(=O)N(c4ccc(C)cc4C)C(=O)[C@H]3[C@@H]3C=CC=NN32)cc1 | 17.7% | 0.0058 µM [rising, full curve, poor fit] | 
34 | CC(=O)c1c(C)[nH]c(C(=O)OCc2cccc(Cl)c2)c1C | -38.4% | 0.116 µM [falling, full curve, poor fit] | 
35 | Cc1csc(NC(=O)C2CCCN(S(=O)(=O)c3cnc[nH]3)C2)n1 (centres undefined) | -6.08% |  | 
36 | Cc1ccc(CNC(=O)CSc2nc3[nH]ncc3c(=O)[nH]2)cc1 | -22.6% | 13 µM [falling, partial curve] | 0.00461 µM [falling, full curve, poor fit]
37 | O=C(Cc1ccc(F)cc1)NC(Cc1c[nH]c2ccccc12)C(=O)O (centres undefined) | -3.95% |  | 
38 | COc1cc(C(=O)N[C@@H](Cc2c[nH]c3ccccc23)C(=O)O)cc(OC)c1OC | 23.5% |  | 
39 | CN(C)C(=O)CN1CCN(Cc2cn(C)nc2-c2ccc3c(c2)OCCO3)CC1 | 9.27% | 5.17 µM [rising, partial curve] | 
40 | COc1c(O)cccc1/C=N/NC(=O)Cn1ccnc1C |  | 4.11 µM [rising, partial curve, poor fit] | 5.8 µM [rising, partial curve, poor fit]
41 | CCOC(=O)COc1c(Cl)cc(C2NC(=S)NC(c3ccccc3)=C2C(C)=O)cc1OC (centres undefined) | -0.953% | 0.82 µM [rising, partial curve, poor fit] | 
42 | CON(c1nc(Cl)nc(N(C)C)n1)S(=O)(=O)c1ccc(C)cc1 | -8.33% |  | 

Row | SMILES | cell number change | AC50 [1] | AC50 [2]
43 | CC(C)OC(=O)C1CC=CCC1C(=O)Nc1ccc(Cl)cc1 (centres undefined) |  |  | 1.84 µM [rising, partial curve]
44 | COc1cc2c(cc1OC)C(C(=O)NCC1COc3ccccc3O1)C(c1cccnc1)N(C)C2=O (centres undefined) | 156% |  | 18.4 µM [rising, partial curve]
45 | CCc1ccc(N2CC(C(=O)NC3CC3)CC2=O)cc1 (centres undefined) | 22.5% | 29.1 µM [falling, single point] | 
46 | O=C(CCNS(=O)(=O)c1ccc(Br)cc1)NCCCSc1ccccc1 | -8.42% | 8.2 µM [falling, partial curve, poor fit] | 
47 | O=C(CCn1c(=O)c2ccccc2n(CC(=O)NC2CCCC2)c1=O)NCCc1ccc(Cl)cc1 | 28.1% |  | 1.3 µM [rising, full curve]
48 | O=C(OCCN=C1NS(=O)(=O)c2ccccc21)C1CC(=O)N(c2ccc(Cl)cc2)C1 (centres undefined) | 0.318% | 6.51 µM [falling, single point] | 3.26 µM [falling, single point]
49 | COc1cc(NC(=O)c2cc3nc(C)cc(C)n3n2)c(OC)cc1Cl | -0.809% |  | 
50 | CCc1cc2c(=O)c(-c3ccc(F)cc3)c(C)oc2cc1OCC(=O)O | -9.84% | 1.16 µM [rising, single point] | 1.16 µM [rising, single point]
51 | COCCNc1nc(N)c([N+](=O)[O-])c(NCCO)n1 | 5.97% | 23.1 µM [rising, partial curve, poor fit] | 
52 | CSC1=NC(=O)/C(=C/c2ccc(SC)cc2)S1 | -12.9% |  | 
53 | COc1ccccc1N1CCN(C(=O)c2cccc(N3C(=O)C4C5C=CC(C5)C4C3=O)c2)CC1 (centres undefined) | 84.8% | 11.6 µM [rising, partial curve] | 18.4 µM [rising, single point]
54 | COc1ccc(OC)c(NC(=O)c2cc(-c3cc(C)cc(C)c3O)n[nH]2)c1 | -47.7% | 29.1 µM [falling, single point] | 29.1 µM [falling, single point]
55 | COc1ccccc1N1CCN(C(=O)c2ccc(S(=O)(=O)N3CCCCC3)cc2)CC1 | -3.83% | 6.51 µM [rising, partial curve, poor fit] | 
56 | COc1ccccc1-c1cc(SC)c(C#N)c(=O)o1 | -55.5% | 13 µM [falling, partial curve] | 11.6 µM [falling, partial curve]
57 | CC(C)Oc1cccc(C(=O)Nc2ncn[nH]2)c1 | -0.265% | 29.1 µM [rising, single point] | 
58 | Cc1ccc(-c2nnc(N3CCN(C(=O)COc4ccccc4)CC3)c3ccccc23)cc1 | 73.1% | 3.66 µM [rising, full curve] | 4.61 µM [rising, full curve]
59 | CCOC(=O)c1cnn(Cc2ccccc2Cl)c1N |  | 4.61 µM [rising, single point] | 
60 | CCN(CC)S(=O)(=O)c1ccc(C(=O)OCn2nnc3ccccc3c2=O)cc1 | 9.91% | 1.84 µM [falling, partial curve] | 0.731 µM [falling, full curve, poor fit]
61 | N=C(N)SCc1ncccc1O | -29.8% | 18.4 µM [falling, single point] | 

Reprinted from the results shown (14 entries):
Row | SMILES | cell number change | AC50 [1] | AC50 [2]
31 | CCCS(=O)(=O)N1CCN(Cc2ccccc2C(F)(F)F)CC1 | -11.3% |  | 
32 | O=C(Nc1cccc(F)c1)N1CCC(c2ccccc2)CC1 | 11.3% |  | 0.231 µM [rising, full curve, poor fit]
33 | CC(=O)Oc1ccc(C(=O)[C@H]2[C@H]3C(=O)N(c4ccc(C)cc4C)C(=O)[C@H]3[C@@H]3C=CC=NN32)cc1 | 17.7% | 0.0058 µM [rising, full curve, poor fit] | 
34 | CC(=O)c1c(C)[nH]c(C(=O)OCc2cccc(Cl)c2)c1C | -38.4% | 0.116 µM [falling, full curve, poor fit] | 
35 | Cc1csc(NC(=O)C2CCCN(S(=O)(=O)c3cnc[nH]3)C2)n1 (centres undefined) | -6.08% |  | 
36 | Cc1ccc(CNC(=O)CSc2nc3[nH]ncc3c(=O)[nH]2)cc1 | -22.6% | 13 µM [falling, partial curve] | 0.00461 µM [falling, full curve, poor fit]
37 | O=C(Cc1ccc(F)cc1)NC(Cc1c[nH]c2ccccc12)C(=O)O (centres undefined) | -3.95% |  | 
38 | COc1cc(C(=O)N[C@@H](Cc2c[nH]c3ccccc23)C(=O)O)cc(OC)c1OC | 23.5% |  | 
39 | CN(C)C(=O)CN1CCN(Cc2cn(C)nc2-c2ccc3c(c2)OCCO3)CC1 | 9.27% | 5.17 µM [rising, partial curve] | 
40 | COc1c(O)cccc1/C=N/NC(=O)Cn1ccnc1C |  | 4.11 µM [rising, partial curve, poor fit] | 5.8 µM [rising, partial curve, poor fit]
41 | CCOC(=O)COc1c(Cl)cc(C2NC(=S)NC(c3ccccc3)=C2C(C)=O)cc1OC (centres undefined) | -0.953% | 0.82 µM [rising, partial curve, poor fit] | 
42 | CON(c1nc(Cl)nc(N(C)C)n1)S(=O)(=O)c1ccc(C)cc1 | -8.33% |  | 
43 | CC(C)OC(=O)C1CC=CCC1C(=O)Nc1ccc(Cl)cc1 (centres undefined) |  |  | 1.84 µM [rising, partial curve]
44 | COc1cc2c(cc1OC)C(C(=O)NCC1COc3ccccc3O1)C(c1cccnc1)N(C)C2=O (centres undefined) | 156% |  | 18.4 µM [rising, partial curve]
